# Library screening results

Measurements from “University of Dundee, Small-Polar-MMV Screening Library” (2021), ChEMBL document CHEMBL3988442.

A: 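Whole-cell assay for inhibitors of Mycobacterium tuberculosis growth, labelled Cornell in the record; the read-out is not stated. The concentration is filed as 10 mM, unlikely as a test dose, so the dose is not known. The record gives no direction; compounds strong in two other growth screens of this library score well above the rest, so higher reads as stronger inhibition. Of about 53,000 compounds tested this way, about 900 (1.7%) reached 50% or more in at least one test.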
B: 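Assay on Mycobacterium tuberculosis, filed only as a heat shock assay from Cornell; the read-out is not stated. The concentration is filed as 10 mM, unlikely as a test dose, so the dose is not known. The record gives no direction; compounds that gave an IC50 in retests scored well above the rest, so higher reads as stronger inhibition. Size under these conditions: about 69,000 compounds, about 930 of them at 50% or above in at least one test.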

Results are given as percent effect. The record does not define 0% and 100%; most values in the screen are far below 50% and negative numbers occur (in some assays of this library far below -100). Compounds were drawn at random from those tested, without regard to their results. A dash means the value is not listed here; it may have been measured.

Result for CC(O)CN(C(=O)NC1CC1)C(C)C (configuration not stated) was A: -0.8929%; B: 6.18%.
Result for CC(C)CN1CC(C(=O)NCCNc2ncccn2)CC1=O (configuration not stated) was B: 8.017%.
Result for COCCOc1ccc(NC(=O)C2CC(=O)N(C)C2)cn1 (configuration not stated) was A: -7.725%; B: 4.167%.
Result for CCOCC1CN(Cc2cc(C)on2)Cc2cn(C)nc21 (configuration not stated) was A: -9.468%; B: -39.84%.
Result for COC(=O)c1cc(NC(=O)CCc2cscn2)ccc1C was B: 18.97%.
Result for [H][C@@]12CNC[C@]1([H])N(Cc1ccoc1)CCO2 was A: 21.01%; B: -14.28%.
Result for c1cc(COc2ccc(CNC3CCc4ncnn4C3)cc2)ccn1 (configuration not stated) was B: -1.224%.
Result for O=C(Nc1cc(CCC2CCN(CCO)CC2)ccn1)c1ccccn1 was A: -74.79%; B: -1.258%.
Result for Cn1nccc1CN1CCCC(COc2ccccc2F)C1 (configuration not stated) was A: 20.53%; B: -2.523%.
Result for Cc1cnn(CCNCc2c(C)nn(C)c2Cl)c1 was A: -4.841%; B: -17.71%.
Result for Cc1ccc2c(c1)c(CNC(C)Cn1ccnc1)nn2C (configuration not stated) was B: -30.22%.
Result for NC(=O)c1nc2c(s1)CCN(C(=O)Nc1cccc(Cl)c1)CC2 was A: 44.53%; B: 12.83%.
Result for CC1(C)CN(Cc2c[nH]c(CC3CCCC3)n2)CC[C@]1(C)O was A: 4.972%; B: 10.2%.
Result for Cc1noc(C)c1CCCNC(=O)C1CCN(C(=O)C2CCC2)CC1 was A: -7.179%; B: 5.246%.
Result for CC(=O)N1CCCC(c2nccnc2Nc2nc(C)cc(C)n2)C1 (configuration not stated) was A: -9.848%; B: -21.78%.
Result for Cc1ncsc1C(=O)NC1CCN(CCCC#N)CC1 was B: -8.892%.
Result for CC[C@@H]1N(C)CCC[C@]12CCC(=O)N2Cc1ccncc1.O=C(O)C(F)(F)F.O=C(O)C(F)(F)F was A: 20.4%; B: -9.742%.
Result for COC1COC2(CCN(Cc3ccco3)CC2)C1 (configuration not stated) was B: 13.1%.
Result for Cc1cc(N(C)C)nc(NC2CCc3nc(C)nn3C2)n1 (configuration not stated) was B: -21.73%.
Result for Cc1nc(-c2ccco2)ccc1C(=O)N1CCc2nnc(N)cc2C1 was A: 1.748%; B: -1.958%.
Result for Clc1ccccc1C1(c2ccnc(C3CCCC3)n2)CCNCC1 was A: -1.902%; B: 57.06%.
Result for CC(C(=O)Nc1ccc(N2CCCC2)nc1)n1ccnc1 (configuration not stated) was A: 14.47%; B: 6.273%.
Result for O=C(CSc1nncs1)N1CCN(Cc2ccc(Cl)s2)CC1 was A: 26.23%; B: 17.56%.
Result for CC1CCN(c2ncc3c(n2)CN(c2ccccc2)C3=O)CC1 was A: -14.56%; B: -2.108%.
Result for CCCn1[nH]cc/c1=N\C(=O)CN1CCc2c(nc(C3CC3)n2C)C1 was B: 7.757%.

The first 2 entries again:

compound	A	B
CC(O)CN(C(=O)NC1CC1)C(C)C (configuration not stated)	-0.8929	6.18
CC(C)CN1CC(C(=O)NCCNc2ncccn2)CC1=O (configuration not stated)	-	8.017